Data source: PubChem BioAssay AID1259281 (Sanger Institute, 2017)

Assay: 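Identify essential genes and drug-enhancing knock-downs among kinases and common colorectal mutated genes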 (primary screen)
Cells: human COLO678 colorectal cancer cell line
Reagent: siRNA pool against human genes
Conditions: anchor drugs at fixed doses: BYL719 1 µM, cetuximab 5 µg/ml or trametinib 10 nM; DMSO vehicle for the siRNA-alone arm
Measured: 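Cell viability compared with non-targeting pool wells, averaged over replicates; knock-down-alone effect also as robust z-score; synergy scores set knock-down plus drug against expected joint effect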
Direction: robust z-score, siRNA alone: higher = more viable cells; strongly negative means essential; viability, siRNA alone: higher = more surviving cells; synergy score with BYL719 and synergy score with trametinib and synergy score with cetuximab: higher = stronger synergistic killing with drug
Call rule: 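Essential (knock-down alone) when the siRNA-alone robust z-score is below -3; otherwise no change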
Calls: active = essential (knock-down alone); inactive = no change
Here is an unselected part of 794 reagents. 22 of them (2.8%) count as active. 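Calls rest on knock-down alone only; drug synergy scores play no part in them.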 Viability is capped at 1. Not given: the amount of reagent, the time to read-out.

| Target gene | robust z-score, siRNA alone | viability, siRNA alone (fraction of control) | synergy score with BYL719 | synergy score with trametinib | synergy score with cetuximab | call |
| --- | --- | --- | --- | --- | --- | --- |
| SF3B1 | 0.473 | 1 | 0.161 | 0.0798 | 0.056 | inactive |
| NRBP1 | 0.473 | 1 | -0.00867 | 0.0761 | -0.0404 | inactive |
| PKIA | 0.473 | 1 | 0.104 | 0.0614 | -0.0184 | inactive |
| HASPIN | -1.44 | 0.939 | 0.0276 | 0.0296 | -0.0677 | inactive |
| STK32B | 0.473 | 1 | -0.0919 | -0.0255 | -0.00873 | inactive |
| PDK2 | 0.473 | 1 | 0.0297 | 0.0925 | 0.0019 | inactive |
| SMC1A | 0.473 | 1 | 0.151 | 0.0497 | 0.059 | inactive |
| CHD4 | 0.473 | 1 | 0.151 | 0.144 | 0.115 | inactive |
| MSR1 | -1.5 | 0.937 | 0.0346 | -0.0197 | 0.055 | inactive |
| EPHA7 | 0.473 | 1 | 0.0344 | 0.023 | -0.0435 | inactive |
| NEK8 | -0.138 | 0.981 | 0.13 | -0.0489 | 0.0451 | inactive |
| EPHA4 | 0.473 | 1 | -0.0212 | 0.157 | 0.0375 | inactive |
| MAP3K11 | -0.113 | 0.981 | 0.0114 | -0.0188 | 0.0239 | inactive |
| RIPK4 | 0.473 | 1 | 0.0156 | -0.0621 | -0.0281 | inactive |
| ABL1 | 0.473 | 1 | -0.0919 | -0.0254 | -0.0609 | inactive |
| TTBK2 | -3.36 | 0.878 | -0.145 | -0.0795 | -0.109 | active |
| TSSK4 | -0.287 | 0.976 | 0.0558 | 0.0777 | -0.0673 | inactive |
| PMVK | -0.414 | 0.972 | -0.096 | 0.0114 | -0.0654 | inactive |
| LATS1 | -3.62 | 0.87 | -0.0568 | 0.00372 | -0.0206 | active |
| GRK4 | 0.473 | 1 | -0.0889 | 0.0505 | 0.0549 | inactive |

2 entries from above, set out differently.
ABL1: robust z-score, siRNA alone = 0.473; viability, siRNA alone (fraction of control) = 1; synergy score with BYL719 = -0.0919; synergy score with trametinib = -0.0254; synergy score with cetuximab = -0.0609; call = inactive
TTBK2: robust z-score, siRNA alone = -3.36; viability, siRNA alone (fraction of control) = 0.878; synergy score with BYL719 = -0.145; synergy score with trametinib = -0.0795; synergy score with cetuximab = -0.109; call = active
